In publication PMC5960688:
No constants are given. Whether binding was seen depends on the method and setting. In cells and extracts the contact can be indirect. Tags and fused reporters may be left off the sequences shown.

Molecular target: MtCAS31-YFP^N (Medicago truncatula)
Test: split reporter; BiFC with YFP^N and YFP^C fusions under the CaMV35S promoter, co-transformed into Arabidopsis protoplasts; 16 h incubation; confocal microscopy, 488 nm excitation

Row | Binder | binding
1 | MtLb1-YFP^C (protein, UniProt P27992 1-147) MSFTDKQEALVNSSYEAFKQNLSGYSVFFYTVILEKAPAAKGLFSFLKDSAGVQDSPQLQAHAEKVFGLVRDSASQLRATGGVVLGDAALGAIHIQKGVVDPHFVVVKEALLKTIKEAAGDKWSEELSTAWEVAYDALATEIKKAMS | no binding
2 | MtLb2-YFP^C (protein, UniProt P27993 1-146) MGFTEKQEALVNSSWELFKQNPGNSVLFYTIILEKAPAAKGMFSFLKDTAGVQDSPKLQSHAEKVFGMVRDSAVQLRATGGVVLGDATLGAIHIQKGVVDPHFVVVKEALLKTIKEVSGDKWSEELSTAWEVAYDALAAAIKKAMG | no binding
